Source: PMC9345867
No constants are given. Whether binding was seen depends on the method and setting. In cells and extracts the contact can be indirect. Some binding calls cover weakened binding; strength is not graded here. Where a sequence is shown, tags or fusion partners need not be part of it.

Chains of the proteins cited; added tags and fusions are not shown.
UniProt O14744: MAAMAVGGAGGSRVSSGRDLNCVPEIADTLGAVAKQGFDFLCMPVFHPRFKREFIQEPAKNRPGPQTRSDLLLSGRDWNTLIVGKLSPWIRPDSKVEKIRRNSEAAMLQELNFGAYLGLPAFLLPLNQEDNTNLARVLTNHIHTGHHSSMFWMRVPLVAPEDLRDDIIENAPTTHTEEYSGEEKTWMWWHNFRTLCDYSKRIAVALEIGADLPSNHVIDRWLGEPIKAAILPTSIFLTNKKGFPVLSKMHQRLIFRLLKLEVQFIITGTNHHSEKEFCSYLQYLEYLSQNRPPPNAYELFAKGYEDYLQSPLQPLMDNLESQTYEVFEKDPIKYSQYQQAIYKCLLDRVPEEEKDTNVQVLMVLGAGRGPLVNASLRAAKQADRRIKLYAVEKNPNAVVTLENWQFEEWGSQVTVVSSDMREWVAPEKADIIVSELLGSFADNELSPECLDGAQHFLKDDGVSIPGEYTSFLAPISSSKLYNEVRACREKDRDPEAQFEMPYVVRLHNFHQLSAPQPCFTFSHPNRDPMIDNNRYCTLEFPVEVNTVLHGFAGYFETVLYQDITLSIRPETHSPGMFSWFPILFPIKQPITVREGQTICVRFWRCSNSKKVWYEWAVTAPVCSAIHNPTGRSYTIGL

What was measured:
[1] = molecular target: T1, FLAG-CT47 (human) (UniProt Q5JQC4); assay: co-IP; HEK293T cells cotransfected with FLAG-CT47 and HA-PRMT5; reciprocal IPs with anti-FLAG or anti-HA antibodies, detection with anti-HA or anti-FLAG antibodies
T1 sequence: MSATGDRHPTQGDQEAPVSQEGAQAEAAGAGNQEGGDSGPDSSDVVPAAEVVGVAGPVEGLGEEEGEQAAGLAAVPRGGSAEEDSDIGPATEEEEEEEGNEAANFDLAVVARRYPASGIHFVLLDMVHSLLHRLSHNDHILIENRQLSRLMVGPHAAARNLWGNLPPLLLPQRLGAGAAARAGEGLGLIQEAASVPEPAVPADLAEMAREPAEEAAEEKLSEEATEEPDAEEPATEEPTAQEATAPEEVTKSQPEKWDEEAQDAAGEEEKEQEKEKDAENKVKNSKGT

[2] = molecular target: HA-PRMT5 (UniProt O14744); assay: as above

For “HA-PRMT5 (from UniProt O14744 1-637) (enzyme)”, the binding [1] was “binds”.

B1: FLAG-CT47 (protein, UniProt Q5JQC4 1-288)
chain: MSATGDRHPTQGDQEAPVSQEGAQAEAAGAGNQEGGDSGPDSSDVVPAAEVVGVAGPVEGLGEEEGEQAAGLAAVPRGGSAEEDSDIGPATEEEEEEEGNEAANFDLAVVARRYPASGIHFVLLDMVHSLLHRLSHNDHILIENRQLSRLMVGPHAAARNLWGNLPPLLLPQRLGAGAAARAGEGLGLIQEAASVPEPAVPADLAEMAREPAEEAAEEKLSEEATEEPDAEEPATEEPTAQEATAPEEVTKSQPEKWDEEAQDAAGEEEKEQEKEKDAENKVKNSKGT
With B1 the binding [2] was “binds”.
